Test results: the supplement of paper PMC12823440, “Inhibitors supercharge kinase turnover through native proteolytic circuits” (Nature, 2025)
This is one part of the list. The calls rarely recur for the same compound in another form.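 Kinases, fused to nanoluciferase, were expressed in K562 cells; luminescence was measured every 4 h from 2 to 18 h as percent of control (DMSO = 100%, positive control = 0%). A time point is decreased if signal falls significantly (2 sigma). Hits were called by the authors by a rule that is not shown; the count of time points alone does not decide it.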

Protein sequences, listed by entry. Tags and fused reporters are not part of them. Lines headed by an entry give the natural chain unless they say otherwise; changes in a name come on top.
UniProt P29317, whole entry: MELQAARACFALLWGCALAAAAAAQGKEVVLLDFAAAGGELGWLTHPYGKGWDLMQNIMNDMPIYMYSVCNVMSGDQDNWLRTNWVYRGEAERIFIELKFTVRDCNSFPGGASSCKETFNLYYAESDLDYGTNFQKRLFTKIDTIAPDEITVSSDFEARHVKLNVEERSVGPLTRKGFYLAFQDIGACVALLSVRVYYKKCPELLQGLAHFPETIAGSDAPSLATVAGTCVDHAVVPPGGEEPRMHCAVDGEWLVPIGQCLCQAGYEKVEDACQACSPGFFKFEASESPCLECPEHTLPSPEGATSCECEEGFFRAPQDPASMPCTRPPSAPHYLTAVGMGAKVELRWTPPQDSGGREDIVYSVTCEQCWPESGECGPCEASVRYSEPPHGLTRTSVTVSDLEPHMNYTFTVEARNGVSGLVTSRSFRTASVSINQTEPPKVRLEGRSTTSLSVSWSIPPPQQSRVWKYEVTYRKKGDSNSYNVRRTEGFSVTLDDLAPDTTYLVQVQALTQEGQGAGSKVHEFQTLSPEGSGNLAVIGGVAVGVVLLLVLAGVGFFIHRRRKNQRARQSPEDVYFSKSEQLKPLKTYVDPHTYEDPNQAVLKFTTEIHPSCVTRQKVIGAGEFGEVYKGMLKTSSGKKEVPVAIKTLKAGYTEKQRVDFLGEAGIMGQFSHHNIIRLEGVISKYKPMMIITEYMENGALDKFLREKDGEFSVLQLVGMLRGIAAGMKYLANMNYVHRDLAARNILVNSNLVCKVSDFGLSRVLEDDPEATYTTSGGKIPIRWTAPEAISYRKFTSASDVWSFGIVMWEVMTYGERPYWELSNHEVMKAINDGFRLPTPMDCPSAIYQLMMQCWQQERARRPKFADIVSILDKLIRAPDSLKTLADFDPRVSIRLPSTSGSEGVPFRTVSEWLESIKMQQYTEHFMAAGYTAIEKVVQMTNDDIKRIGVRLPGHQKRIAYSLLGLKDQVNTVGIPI
UniProt Q15303, whole entry R711C: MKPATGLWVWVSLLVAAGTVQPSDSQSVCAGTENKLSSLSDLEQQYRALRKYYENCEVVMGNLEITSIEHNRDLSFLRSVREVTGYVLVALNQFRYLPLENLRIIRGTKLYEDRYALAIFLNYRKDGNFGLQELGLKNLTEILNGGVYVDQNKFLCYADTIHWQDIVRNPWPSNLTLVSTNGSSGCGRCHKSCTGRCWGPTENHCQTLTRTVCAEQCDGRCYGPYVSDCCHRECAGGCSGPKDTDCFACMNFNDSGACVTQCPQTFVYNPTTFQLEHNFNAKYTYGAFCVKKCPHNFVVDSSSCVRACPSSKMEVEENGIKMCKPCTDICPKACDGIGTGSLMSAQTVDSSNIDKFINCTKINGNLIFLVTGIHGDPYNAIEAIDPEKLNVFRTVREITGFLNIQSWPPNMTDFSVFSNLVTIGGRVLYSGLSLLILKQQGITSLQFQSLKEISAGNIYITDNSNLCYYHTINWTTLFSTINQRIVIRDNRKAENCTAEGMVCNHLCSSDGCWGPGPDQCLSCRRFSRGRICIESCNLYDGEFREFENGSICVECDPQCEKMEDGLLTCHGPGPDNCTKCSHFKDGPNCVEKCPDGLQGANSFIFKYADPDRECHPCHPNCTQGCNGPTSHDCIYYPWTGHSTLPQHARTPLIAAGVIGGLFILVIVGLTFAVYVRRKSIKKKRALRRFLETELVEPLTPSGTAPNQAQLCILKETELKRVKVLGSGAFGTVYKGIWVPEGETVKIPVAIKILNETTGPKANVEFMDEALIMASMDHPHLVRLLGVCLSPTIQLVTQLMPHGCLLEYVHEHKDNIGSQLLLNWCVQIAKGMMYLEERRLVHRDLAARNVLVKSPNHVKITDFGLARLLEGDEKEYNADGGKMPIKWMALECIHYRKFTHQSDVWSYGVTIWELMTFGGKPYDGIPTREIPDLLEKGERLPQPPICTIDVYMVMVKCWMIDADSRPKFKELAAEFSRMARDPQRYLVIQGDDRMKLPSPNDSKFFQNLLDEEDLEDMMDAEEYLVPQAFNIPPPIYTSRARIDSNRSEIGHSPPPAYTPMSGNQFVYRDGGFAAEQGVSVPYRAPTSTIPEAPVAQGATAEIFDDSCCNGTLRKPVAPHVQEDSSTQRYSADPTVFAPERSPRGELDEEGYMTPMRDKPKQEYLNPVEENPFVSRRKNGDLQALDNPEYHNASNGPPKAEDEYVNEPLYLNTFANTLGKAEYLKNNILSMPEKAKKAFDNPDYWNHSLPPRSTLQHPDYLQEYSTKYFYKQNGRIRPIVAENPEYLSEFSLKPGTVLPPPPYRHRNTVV
UniProt O75460: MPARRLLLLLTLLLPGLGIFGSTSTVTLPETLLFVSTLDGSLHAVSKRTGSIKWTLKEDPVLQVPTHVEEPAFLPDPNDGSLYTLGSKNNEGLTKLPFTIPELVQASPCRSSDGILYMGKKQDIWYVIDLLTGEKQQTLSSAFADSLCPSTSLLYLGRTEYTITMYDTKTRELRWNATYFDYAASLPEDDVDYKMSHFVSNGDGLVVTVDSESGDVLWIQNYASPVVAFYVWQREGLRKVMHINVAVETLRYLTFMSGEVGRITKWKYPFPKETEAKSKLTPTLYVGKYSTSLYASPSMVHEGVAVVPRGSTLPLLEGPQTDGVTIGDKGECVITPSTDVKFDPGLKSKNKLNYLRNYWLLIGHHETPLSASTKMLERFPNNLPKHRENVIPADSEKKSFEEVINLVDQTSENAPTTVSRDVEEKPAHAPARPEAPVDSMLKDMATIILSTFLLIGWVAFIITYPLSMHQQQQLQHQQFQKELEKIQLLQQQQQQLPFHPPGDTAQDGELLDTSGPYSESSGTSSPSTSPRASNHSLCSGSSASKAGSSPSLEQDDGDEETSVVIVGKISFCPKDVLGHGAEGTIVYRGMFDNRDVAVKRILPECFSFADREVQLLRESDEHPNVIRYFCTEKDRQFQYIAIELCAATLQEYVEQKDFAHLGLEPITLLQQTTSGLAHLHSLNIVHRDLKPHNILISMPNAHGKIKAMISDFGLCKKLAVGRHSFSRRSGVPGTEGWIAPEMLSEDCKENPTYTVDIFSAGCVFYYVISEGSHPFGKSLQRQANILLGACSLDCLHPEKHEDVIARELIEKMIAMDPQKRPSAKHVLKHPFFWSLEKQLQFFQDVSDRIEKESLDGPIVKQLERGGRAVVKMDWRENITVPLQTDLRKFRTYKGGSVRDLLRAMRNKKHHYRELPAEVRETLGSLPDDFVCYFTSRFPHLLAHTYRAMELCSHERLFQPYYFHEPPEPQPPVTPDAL
UniProt P11362, whole entry, looked up: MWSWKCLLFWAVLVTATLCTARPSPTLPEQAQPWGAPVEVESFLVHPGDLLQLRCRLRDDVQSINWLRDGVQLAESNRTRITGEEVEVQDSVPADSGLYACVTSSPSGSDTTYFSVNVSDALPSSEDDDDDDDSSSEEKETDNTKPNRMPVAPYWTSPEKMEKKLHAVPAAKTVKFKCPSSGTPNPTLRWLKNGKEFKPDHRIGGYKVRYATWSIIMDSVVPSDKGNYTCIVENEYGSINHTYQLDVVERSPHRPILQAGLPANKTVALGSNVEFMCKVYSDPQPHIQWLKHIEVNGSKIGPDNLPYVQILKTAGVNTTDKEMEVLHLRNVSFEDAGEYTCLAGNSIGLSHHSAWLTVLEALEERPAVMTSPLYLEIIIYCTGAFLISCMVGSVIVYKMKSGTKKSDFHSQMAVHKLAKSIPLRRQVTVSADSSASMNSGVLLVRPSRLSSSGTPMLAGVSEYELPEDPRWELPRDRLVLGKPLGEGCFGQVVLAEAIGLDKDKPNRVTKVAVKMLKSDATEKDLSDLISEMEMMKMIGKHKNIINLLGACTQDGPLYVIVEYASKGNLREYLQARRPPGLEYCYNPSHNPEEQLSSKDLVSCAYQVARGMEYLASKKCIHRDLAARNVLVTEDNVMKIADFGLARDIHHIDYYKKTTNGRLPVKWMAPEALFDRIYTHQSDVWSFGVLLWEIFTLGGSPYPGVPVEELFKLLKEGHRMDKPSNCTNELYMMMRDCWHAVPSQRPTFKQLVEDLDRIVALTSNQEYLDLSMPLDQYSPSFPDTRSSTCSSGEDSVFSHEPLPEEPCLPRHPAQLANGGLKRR
UniProt P22607, whole entry, looked up: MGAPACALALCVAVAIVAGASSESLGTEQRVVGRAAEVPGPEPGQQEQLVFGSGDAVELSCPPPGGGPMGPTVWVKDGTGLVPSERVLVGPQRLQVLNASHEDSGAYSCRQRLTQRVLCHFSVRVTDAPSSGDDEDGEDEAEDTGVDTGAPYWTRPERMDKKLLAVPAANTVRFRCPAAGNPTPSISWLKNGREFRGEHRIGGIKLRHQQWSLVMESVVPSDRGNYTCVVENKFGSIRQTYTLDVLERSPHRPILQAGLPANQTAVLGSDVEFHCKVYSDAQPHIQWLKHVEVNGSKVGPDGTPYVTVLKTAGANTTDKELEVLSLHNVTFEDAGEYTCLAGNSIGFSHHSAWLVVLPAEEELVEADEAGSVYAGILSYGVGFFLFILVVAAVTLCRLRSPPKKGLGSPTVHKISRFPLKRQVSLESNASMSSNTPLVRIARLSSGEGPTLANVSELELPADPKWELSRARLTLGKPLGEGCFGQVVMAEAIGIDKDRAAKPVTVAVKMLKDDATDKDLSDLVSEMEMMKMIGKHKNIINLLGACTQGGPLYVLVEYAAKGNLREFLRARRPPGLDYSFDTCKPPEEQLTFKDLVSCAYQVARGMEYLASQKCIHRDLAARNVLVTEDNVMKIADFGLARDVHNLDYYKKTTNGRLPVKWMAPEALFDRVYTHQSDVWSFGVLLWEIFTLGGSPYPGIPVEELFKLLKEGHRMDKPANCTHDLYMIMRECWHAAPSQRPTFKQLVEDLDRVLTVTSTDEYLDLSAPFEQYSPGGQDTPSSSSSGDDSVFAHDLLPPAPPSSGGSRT
UniProt P36888, whole entry: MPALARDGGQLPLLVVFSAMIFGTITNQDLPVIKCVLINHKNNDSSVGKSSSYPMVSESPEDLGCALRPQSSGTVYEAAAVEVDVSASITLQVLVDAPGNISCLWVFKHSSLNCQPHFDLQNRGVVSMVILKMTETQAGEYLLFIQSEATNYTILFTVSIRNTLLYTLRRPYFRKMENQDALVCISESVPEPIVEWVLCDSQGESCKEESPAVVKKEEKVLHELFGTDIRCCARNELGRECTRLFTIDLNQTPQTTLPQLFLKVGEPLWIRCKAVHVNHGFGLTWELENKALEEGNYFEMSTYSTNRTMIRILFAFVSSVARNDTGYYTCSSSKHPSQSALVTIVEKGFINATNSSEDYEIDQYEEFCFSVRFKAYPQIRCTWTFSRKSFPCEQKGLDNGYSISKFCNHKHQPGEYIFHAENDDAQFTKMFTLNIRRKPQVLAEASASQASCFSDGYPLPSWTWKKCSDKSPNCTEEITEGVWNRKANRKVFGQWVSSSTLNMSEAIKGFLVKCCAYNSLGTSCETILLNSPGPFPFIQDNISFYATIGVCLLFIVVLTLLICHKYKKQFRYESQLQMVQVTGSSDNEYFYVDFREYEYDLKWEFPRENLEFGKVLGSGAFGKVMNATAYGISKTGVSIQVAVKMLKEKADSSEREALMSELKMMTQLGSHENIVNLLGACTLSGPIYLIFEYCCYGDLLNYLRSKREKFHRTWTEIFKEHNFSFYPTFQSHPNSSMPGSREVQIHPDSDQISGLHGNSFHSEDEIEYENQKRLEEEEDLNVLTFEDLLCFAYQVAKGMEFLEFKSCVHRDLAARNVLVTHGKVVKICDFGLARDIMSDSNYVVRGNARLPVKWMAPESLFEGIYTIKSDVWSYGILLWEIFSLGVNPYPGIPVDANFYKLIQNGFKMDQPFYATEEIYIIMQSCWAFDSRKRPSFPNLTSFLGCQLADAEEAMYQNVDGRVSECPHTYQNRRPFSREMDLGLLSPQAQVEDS
UniProt P49840: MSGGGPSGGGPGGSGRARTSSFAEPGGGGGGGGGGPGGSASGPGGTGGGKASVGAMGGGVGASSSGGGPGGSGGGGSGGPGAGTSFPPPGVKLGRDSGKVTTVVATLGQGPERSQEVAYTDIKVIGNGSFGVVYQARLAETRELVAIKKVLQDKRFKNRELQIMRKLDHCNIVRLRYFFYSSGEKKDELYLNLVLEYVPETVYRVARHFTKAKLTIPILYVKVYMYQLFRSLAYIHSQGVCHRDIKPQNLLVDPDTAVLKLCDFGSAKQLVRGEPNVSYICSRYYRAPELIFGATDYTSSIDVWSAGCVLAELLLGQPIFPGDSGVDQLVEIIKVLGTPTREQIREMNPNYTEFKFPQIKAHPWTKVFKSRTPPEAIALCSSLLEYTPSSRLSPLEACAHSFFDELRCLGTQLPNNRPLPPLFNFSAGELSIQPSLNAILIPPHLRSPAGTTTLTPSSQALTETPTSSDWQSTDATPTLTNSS

Tests used:
Test in all cases: kinase-Nluc reporter destabilization hit call (1 = scored as downregulated) (binary); higher = compound decreases kinase abundance
Conditions in all cases: K562; 2-18 h
EGFR = EGFR (UniProt P00533)
EGFR_G719S = EGFR_G719S (UniProt P00533)
EGFR_G719S_T790M = EGFR_G719S_T790M (UniProt P00533)
EGFR_L718V = EGFR_L718V (UniProt P00533)
EGFR_L858R = EGFR_L858R (UniProt P00533)
EGFR_L861Q = EGFR_L861Q (UniProt P00533)
EGFR_T790M = EGFR_T790M (UniProt P00533)
EPHA2 = EPHA2 (UniProt P29317)
ERBB3 = ERBB3 (UniProt P21860)
[1] = target: ERBB4_R711C (clone: ERBB4_mut) (UniProt Q15303)
ERN1 = ERN1 (UniProt O75460)
FGFR1 = FGFR1 (UniProt P11362)
FGFR2 = FGFR2 (UniProt P21802)
FGFR3 = FGFR3 (UniProt P22607)
FGR = FGR (UniProt P09769)
FLT3 = FLT3 (UniProt P36888)
FYN = FYN (UniProt P06241)
GSK3A = GSK3A (UniProt P49840)
HER2 = HER2 (UniProt P04626)
INSRR = INSRR (UniProt P14616)

Measured: kinase-Nluc reporter destabilization hit call

O=C(Nc1ccc(F)cc1F)[C@H](NC(=S)Nc1cc(C(F)(F)F)cc(C(F)(F)F)c1)c1ccccc1 (2.5 µM)
inactive: EGFR 0 | EGFR_G719S 0 | EGFR_G719S_T790M 0 | EGFR_L718V 0 | EGFR_L858R 0 | EGFR_L861Q 0 | EGFR_T790M 0 | EPHA2 = 0 | ERBB3 = 0 | [1] 0 | ERN1 = 0 | FGFR1 = 0 | FGFR2 = 0 | FGFR3 = 0 | FGR 0 | FLT3 = 0 | FYN 0 | GSK3A 0 | HER2 = 0 | INSRR 0

C[C@@H]1C(=O)O[C@H](C)[C@H]1C[C@@H](O)[C@](C)(O)[C@H]1CC[C@@]2(O)C3=CC(=O)[C@@H]4C[C@@H](O)[C@@H](O)C[C@]4(C)[C@H]3CC[C@]12C [Cyasterone] (10 µM)
inactive: EGFR 0 | EGFR_G719S 0 | EGFR_G719S_T790M 0 | EGFR_L718V 0 | EGFR_L858R 0 | EGFR_L861Q 0 | EGFR_T790M 0 | EPHA2 = 0 | ERBB3 = 0 | [1] 0 | ERN1 = 0 | FGFR1 = 0 | FGFR2 = 0 | FGFR3 = 0 | FGR 0 | FLT3 = 0 | FYN 0 | GSK3A 0 | HER2 = 0 | INSRR 0

COCCOc1ccc(-c2cn(-c3ccccc3)c3nc[nH]c(=O)c23)cc1 (10 µM)
inactive: EGFR 0 | EGFR_G719S 0 | EGFR_G719S_T790M 0 | EGFR_L718V 0 | EGFR_L858R 0 | EGFR_L861Q 0 | EGFR_T790M 0 | EPHA2 = 0 | ERBB3 = 0 | [1] 0 | ERN1 = 0 | FGFR1 = 0 | FGFR2 = 0 | FGFR3 = 0 | FGR 0 | FLT3 = 0 | FYN 0 | GSK3A 0 | HER2 = 0 | INSRR 0

COc1ncc(-c2nc(N3CCOCC3)nc3c(CN4CCC(C(C)(C)O)CC4)cc(F)cc23)cc1NS(C)(=O)=O [Linperlisib] (10 µM)
inactive: EGFR 0 | EGFR_G719S 0 | EGFR_G719S_T790M 0 | EGFR_L718V 0 | EGFR_L858R 0 | EGFR_L861Q 0 | EGFR_T790M 0 | EPHA2 = 0 | ERBB3 = 0 | [1] 0 | ERN1 = 0 | FGFR1 = 0 | FGFR2 = 0 | FGFR3 = 0 | FGR 0 | FLT3 = 0 | FYN 0 | GSK3A 0 | HER2 = 0 | INSRR 0

CNc1nc(Nc2cnn(C3CCN(C4COC4)CC3F)c2Cl)ncc1C(F)(F)F (stereo not given) (10 µM)
inactive: EGFR 0 | EGFR_G719S 0 | EGFR_G719S_T790M 0 | EGFR_L718V 0 | EGFR_L858R 0 | EGFR_L861Q 0 | EGFR_T790M 0 | EPHA2 = 0 | ERBB3 = 0 | [1] 0 | ERN1 = 0 | FGFR1 = 0 | FGFR2 = 0 | FGFR3 = 0 | FGR 0 | FLT3 = 0 | FYN 0 | GSK3A 0 | HER2 = 0 | INSRR 0

CC(C)(C)c1ccc(S(=O)(=O)Nc2ccc(-n3ccnc3)cc2)cc1 (10 µM)
inactive: EGFR 0 | EGFR_G719S 0 | EGFR_G719S_T790M 0 | EGFR_L718V 0 | EGFR_L858R 0 | EGFR_L861Q 0 | EGFR_T790M 0 | EPHA2 = 0 | ERBB3 = 0 | [1] 0 | ERN1 = 0 | FGFR1 = 0 | FGFR2 = 0 | FGFR3 = 0 | FGR 0 | FLT3 = 0 | FYN 0 | GSK3A 0 | HER2 = 0 | INSRR 0

O=c1cc(O)cc(/C=C/c2ccc(O)c(O)c2)o1 [Hispidin] (10 µM)
inactive: EGFR 0 | EGFR_G719S 0 | EGFR_G719S_T790M 0 | EGFR_L718V 0 | EGFR_L858R 0 | EGFR_L861Q 0 | EGFR_T790M 0 | EPHA2 = 0 | ERBB3 = 0 | [1] 0 | ERN1 = 0 | FGFR1 = 0 | FGFR2 = 0 | FGFR3 = 0 | FGR 0 | FLT3 = 0 | FYN 0 | GSK3A 0 | HER2 = 0 | INSRR 0

O=C(/C=C/c1ccc(O)c(O)c1)c1ccc(O[C@@H]2O[C@H](CO)[C@@H](O)[C@H](O)[C@H]2O)c(O)c1O [Marein] (10 µM)
inactive: EGFR 0 | EGFR_G719S 0 | EGFR_G719S_T790M 0 | EGFR_L718V 0 | EGFR_L858R 0 | EGFR_L861Q 0 | EGFR_T790M 0 | EPHA2 = 0 | ERBB3 = 0 | [1] 0 | ERN1 = 0 | FGFR1 = 0 | FGFR2 = 0 | FGFR3 = 0 | FGR 0 | FLT3 = 0 | FYN 0 | GSK3A 0 | HER2 = 0 | INSRR 0

Cc1ccc(NC(=S)NNc2c([N+](=O)[O-])cc(C(F)(F)F)cc2[N+](=O)[O-])cc1Cl (10 µM)
inactive: EGFR 0 | EGFR_G719S 0 | EGFR_G719S_T790M 0 | EGFR_L718V 0 | EGFR_L858R 0 | EGFR_L861Q 0 | EGFR_T790M 0 | EPHA2 = 0 | ERBB3 = 0 | [1] 0 | ERN1 = 0 | FGFR1 = 0 | FGFR2 = 0 | FGFR3 = 0 | FGR 0 | FLT3 = 0 | FYN 0 | GSK3A 0 | HER2 = 0 | INSRR 0

COc1cc([N+](=O)[O-])ccc1S(=O)(=O)N1C[C@@H](CN2CCN(c3ccccn3)CC2)[C@H](c2cccc(F)c2)C1 (relative stereo) (10 µM)
inactive: EGFR 0 | EGFR_G719S 0 | EGFR_G719S_T790M 0 | EGFR_L718V 0 | EGFR_L858R 0 | EGFR_L861Q 0 | EGFR_T790M 0 | EPHA2 = 0 | ERBB3 = 0 | [1] 0 | ERN1 = 0 | FGFR1 = 0 | FGFR2 = 0 | FGFR3 = 0 | FGR 0 | FLT3 = 0 | FYN 0 | GSK3A 0 | HER2 = 0 | INSRR 0

Cc1ccc(Nc2cc(-c3cccc(N4C(=O)c5ccccc5C4=O)c3)ncn2)cc1NS(C)(=O)=O (10 µM)
inactive: EGFR 0 | EGFR_G719S 0 | EGFR_G719S_T790M 0 | EGFR_L718V 0 | EGFR_L858R 0 | EGFR_L861Q 0 | EGFR_T790M 0 | EPHA2 = 0 | ERBB3 = 0 | [1] 0 | ERN1 = 0 | FGFR1 = 0 | FGFR2 = 0 | FGFR3 = 0 | FGR 0 | FLT3 = 0 | FYN 0 | GSK3A 0 | HER2 = 0 | INSRR 0

O=C(NC(NC(=S)Nc1ccc(F)c([N+](=O)[O-])c1)C(Cl)(Cl)Cl)C(c1ccccc1)c1ccccc1 (stereo not given) (10 µM)
inactive: EGFR 0 | EGFR_G719S 0 | EGFR_G719S_T790M 0 | EGFR_L718V 0 | EGFR_L858R 0 | EGFR_L861Q 0 | EGFR_T790M 0 | EPHA2 = 0 | ERBB3 = 0 | [1] 0 | ERN1 = 0 | FGFR1 = 0 | FGFR2 = 0 | FGFR3 = 0 | FGR 0 | FLT3 = 0 | FYN 0 | GSK3A 0 | HER2 = 0 | INSRR 0

Nc1ncnc2c1c(-c1ccc(Oc3ccccc3)cc1)nn2C1CCCNC1 (racemic) (2.5 µM)
inactive: EGFR 0 | EGFR_G719S 0 | EGFR_G719S_T790M 0 | EGFR_L718V 0 | EGFR_L858R 0 | EGFR_L861Q 0 | EGFR_T790M 0 | EPHA2 = 0 | ERBB3 = 0 | [1] 0 | ERN1 = 0 | FGFR1 = 0 | FGFR2 = 0 | FGFR3 = 0 | FGR 0 | FLT3 = 0 | FYN 0 | GSK3A 0 | HER2 = 0 | INSRR 0

COc1cc2c[n+](C)c3c4cc5c(cc4ccc3c2cc1OC)OCO5 [Nitidine (chloride)] (2 µM)
inactive: EGFR 0 | EGFR_G719S 0 | EGFR_G719S_T790M 0 | EGFR_L718V 0 | EGFR_L858R 0 | EGFR_L861Q 0 | EGFR_T790M 0 | EPHA2 = 0 | ERBB3 = 0 | [1] 0 | ERN1 = 0 | FGFR1 = 0 | FGFR2 = 0 | FGFR3 = 0 | FGR 0 | FLT3 = 0 | FYN 0 | GSK3A 0 | HER2 = 0 | INSRR 0

Cc1cc(Nc2nc(N[C@@H](C)c3ccc(F)cc3)c(C#N)cc2F)n[nH]1 (10 µM)
inactive: EGFR 0 | EGFR_G719S 0 | EGFR_G719S_T790M 0 | EGFR_L718V 0 | EGFR_L858R 0 | EGFR_L861Q 0 | EGFR_T790M 0 | EPHA2 = 0 | [1] 0 | ERN1 = 0 | FGFR1 = 0 | FGFR2 = 0 | FGFR3 = 0 | FGR 0 | FLT3 = 0 | FYN 0 | GSK3A 0 | HER2 = 0 | INSRR 0
active: ERBB3 = 1

2 compounds drawn at random from those above:
Nc1ncnc2c1c(-c1ccc(Oc3ccccc3)cc1)nn2C1CCCNC1 (racemic) (2.5 µM)
inactive: EGFR 0 | EGFR_G719S 0 | EGFR_G719S_T790M 0 | EGFR_L718V 0 | EGFR_L858R 0 | EGFR_L861Q 0 | EGFR_T790M 0 | EPHA2 = 0 | ERBB3 = 0 | [1] 0 | ERN1 = 0 | FGFR1 = 0 | FGFR2 = 0 | FGFR3 = 0 | FGR 0 | FLT3 = 0 | FYN 0 | GSK3A 0 | HER2 = 0 | INSRR 0

Cc1ccc(Nc2cc(-c3cccc(N4C(=O)c5ccccc5C4=O)c3)ncn2)cc1NS(C)(=O)=O (10 µM)
inactive: EGFR 0 | EGFR_G719S 0 | EGFR_G719S_T790M 0 | EGFR_L718V 0 | EGFR_L858R 0 | EGFR_L861Q 0 | EGFR_T790M 0 | EPHA2 = 0 | ERBB3 = 0 | [1] 0 | ERN1 = 0 | FGFR1 = 0 | FGFR2 = 0 | FGFR3 = 0 | FGR 0 | FLT3 = 0 | FYN 0 | GSK3A 0 | HER2 = 0 | INSRR 0

Next part.

CC(c1ccc(-c2cnc3c(-c4ccc(S(N)(=O)=O)c5ccccc45)cnn3c2)cc1)N1CCCC1 (stereo not given) (2.5 µM)
inactive: EGFR 0 | EGFR_G719S 0 | EGFR_G719S_T790M 0 | EGFR_L718V 0 | EGFR_L858R 0 | EGFR_L861Q 0 | EGFR_T790M 0 | EPHA2 = 0 | ERBB3 = 0 | [1] 0 | ERN1 = 0 | FGFR1 = 0 | FGFR2 = 0 | FGFR3 = 0 | FGR 0 | FLT3 = 0 | FYN 0 | GSK3A 0 | HER2 = 0 | INSRR 0

COc1cc(C(N)=O)nc(-c2cccc(C#C[C@]3(O)CCN(C)C3=O)c2)c1 (10 µM)
inactive: EGFR 0 | EGFR_G719S 0 | EGFR_G719S_T790M 0 | EGFR_L718V 0 | EGFR_L858R 0 | EGFR_L861Q 0 | EGFR_T790M 0 | EPHA2 = 0 | ERBB3 = 0 | [1] 0 | ERN1 = 0 | FGFR1 = 0 | FGFR2 = 0 | FGFR3 = 0 | FGR 0 | FLT3 = 0 | FYN 0 | GSK3A 0 | HER2 = 0 | INSRR 0
